Z-score data for 107 sequences are collected here from PubChem BioAssay AID1508600 (Functional Genomics Laboratory (NCATS/FGL), 2020).

The campaign covered roughly 53,000 sequences. About 3,700 (7%) were called active.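 The calls were made as follows: active = gene knockdowns whose robust z-score for IL-1 alpha signal is at least 2 or at most -2, so actives lie on both sides; inactive = the rest.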 The list shows a part of the results.

This assay can be described thus: Components of the Cytosolic LPS Sensing Pathway: Gene Identification via Genome-wide siRNA Screen.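 Also: robust z of the log signal after scaling to non-targeting control siRNA wells of the plate.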 As to conditions: RAW264.7 macrophages, IL-1a HTRF, actives lie on both sides, screened at 100 nM (by protocol), cells primed 5 h with Pam3CSK4 first. In a few lines:
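Using IL-1a HTRF as read-out, the screen measured release from RAW264.7 cells after 48h siRNA knockdown (100 nM), 5 h Pam3CSK4 priming and 24 h cytosolic LipidA. Values were expressed relative to negative-control wells as robust z-scores.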
(In general: TR-FRET usually uses a lanthanide donor and a delayed reading to cut background.)
Consider CCCUUUGAACUUUCCACACTT against Gm11545, for which the z-score is inactive: -1.79.
As to GGAGAAGAUAGAAGCUGAGTT against Rad23a, the z-score was inactive: -1.66.
Regarding GGUGCAAUCAGCUUUCCACTT against Olfr1336, the z-score was active: 2.26.
In the case of GGUUUACCAGGCACUGCUCTT against Atp2b2, the z-score is inactive: 0.845.
Next, GGUUUUUCAGUGACACAUGTT against Vmn1r192: active: 2.26; GCAUGCUUCAAGCCCUAGATT against Evc2: inactive: 1.4; GGAGAAACAGUAAAGAAGATT against Pcbp3: inactive: 0.205.
For GGGCCUCUCUCAGUGACAUTT against C1qtnf9, the z-score was inactive: 0.617.
As to GAUGAAACCAAAGAAUGGCTT against Ano10, the z-score was inactive: -1.22.
For GAGUUCAUCAGAGUGUAGCTT against Ndufs7, the z-score was inactive: 0.897.
As for GGCUGUUGUGCAGACUACATT against Tmem209, the z-score was inactive: 0.573.
The same measure for GGGAAAACAGCAAAUAAUUTT against Necab1: inactive: 1.21; for GGAUCAGUGGUAUUGGUUCTT against Krt75: inactive: -0.0128.
For the sequence GGAAAAAGUUGGCAUCAUUTT against Zswim4, the z-score is inactive: -0.0485.
For CGCCACUGCUUUGAUUACUTT against Coa5, the z-score was inactive: -1.51.
Turning to “GGAAGUGGCCACAUGUGAATT against E230025N22Rik”, the z-score is inactive: -0.404.
Turning to GCAGUGGUAGAUCUUAGAGTT against Lmcd1, the z-score is inactive: 1.07.
With GGAUGAGUUUUUAAAGUCATT against Otop2, the z-score is inactive: -0.883.
Next, CGCUUAUCAUGAACAAAGATT against C8b: inactive: -0.621; “CCACACAAUCCAGUUAUAATT against 1700055D18Rik”: inactive: 1.41.
With GGCUUUCCUCCAGAUAAACTT against Il6st, the z-score is inactive: -0.856.
In the case of GGCUCUGUCCAACAUGAUGTT against Tnnt2, the z-score was inactive: -0.938.
Consider CGUAUUAGAGAAGAUUACATT against Csnka2ip, for which the z-score is inactive: 1.25.
Take GGAAUUAAAAGAGCUGGGCTT against Selenon: the z-score is inactive: 0.697.
As for GCCAAGCUCGCCAAGAUUATT against P4ha2, the z-score is inactive: 0.273.
As to GGGUUUCCAAGACAGACUATT against Il12rb1, the z-score was inactive: -0.143.
The same measure for GCUUGCCUAAUGAAACCUUTT against Naaladl1: inactive: -0.715; for GGACAUGAGGACACCAUUGTT against Saa1: inactive: -1.51.
As to GCCUAAAUGAUGGUGCUUGTT against Klf4, the z-score was inactive: -1.82.
As to CCUACACAUACAUUGAUGATT against Eppk1, the z-score was inactive: -1.37.
As for CCAAGGCUCACCUUCCAAUTT against Sla, the z-score was inactive: 0.278.
Take GGAUAAUGUGAUAACACUCTT against Fam171a2: the z-score is inactive: 0.926.
For the sequence CAAGUUAAGGAACUAUGAUTT against LOC432823, the z-score is inactive: -1.54.
The same measure for GCAACUCAGAAUGUAGUGUTT against Gnai1: inactive: 0.298; for GGGCAUGAAGUUUCUGAUCTT against Fgf17: inactive: 0.425; for GGAGAUUCACUUUCUAUCUTT against B3gnt9: inactive: 0.656.
On to CCAAGACAUCACAUUCAUATT against Lrriq3, for which the z-score was inactive: -1.38.
In the case of GCCACUUCCUGGAUAAGGATT against Ftl2-ps, the z-score was active: -2.88.
Turning to GGGUUUCUAGUCCUGUUUCTT against Cplx2, the z-score was inactive: -0.0159.
Consider GGAAAAUCUCCGUUGUCUCTT against Acin1, for which the z-score is active: -2.76.
For GGCACAUGGAAUCUUUGAGTT against Edc3, the z-score was inactive: -1.65.
As to GGAUGAAAUCUCUAUCCUCTT against Fam20a, the z-score was inactive: 0.221.
In the case of CCAGAAACUGACCUCAACCTT against Ltb, the z-score is inactive: -1.43.
As to GGGCAAACUCUAGAGCUACTT against Pdgfrl, the z-score is inactive: -0.0578.
On to GGGUUGAUUAAAGUUUAACTT against Gsx2, for which the z-score was inactive: 1.4.
With GGAAUACGAAAAGCAGGACTT against Tmem107, the z-score was inactive: 1.39.
GCACAGUUGGCAACCUUUATT against S100a9: the z-score was inactive: -0.029.
In the case of GGAAUUGAGACCCAAUAUUTT against Cnot7, the z-score is inactive: -0.353.
Take GGAAUGCAGCCAUCCUAUCTT against Mia: the z-score was inactive: 0.0985.
With GGAUAACACCGCCAUUCCATT against Csn3, the z-score was inactive: -0.303.
Next, GGCUGAAACAAGAACGUGATT against Prrc2a: inactive: -1.47.
In the case of GGAAGAUCAUCCUAUUAUGTT against Wdr26, the z-score is inactive: -0.219.
With GCGAUAGCAUAUCCUAUCCTT against Gnb1, the z-score is inactive: 1.11.
Consider GGCCCAUGAUCCAUUUUGGTT against Prnp, for which the z-score is active: -2.07.
For GGUGACAUUUGAGAUCUAUTT against Plcg2, the z-score was inactive: 1.54.
As for GCCACUAUACAUAUUCUGGTT against Pcdhb18, the z-score is inactive: -1.02.
For the sequence GGUGUGGUCAAGAAAGUGGTT against Atp6v1c1, the z-score was inactive: 1.32.
Take GGAAUUUGGUGCAGUGUCCTT against Utp15: the z-score was inactive: -1.39.
Consider GCUUAAGGACGCAUUGAAATT against Pthlh, for which the z-score was inactive: -0.377.
As to GGUCUUCUUCUUCAAAGCUTT against Mrpl46, the z-score was inactive: -1.27.
In the case of GCUUCCGAAAUCUGCCAAATT against Cd74, the z-score was inactive: 0.603.
In the case of GGGUGCUAUUCUCCUUUUUTT against Rab44, the z-score was inactive: -1.
Turning to GGAAAUGUACAUCAUCAAGTT against Cnga2, the z-score was inactive: -1.24.
Turning to GGGAAUAUUUGGAUAACUUTT against Pak7, the z-score was active: 4.24.
Regarding GGACUUGAGUGUGAAUCAATT against Anxa1, the z-score is inactive: 0.677.
Regarding GGCCCAUUAUGUUUAGUAATT against Gm1553, the z-score was inactive: 0.745.
Turning to GCUCCAUACUUUCACACGATT against H2-Q7, the z-score was inactive: 0.659.
For the sequence GGGAUGUCUGUUGAAAUAATT against Prcc, the z-score is inactive: -0.422.
As for GGUCUGCUUUGUCUUGGUGTT against Olfr829, the z-score was inactive: 0.126.
Consider GGCCCACAAUGUGAUUUUATT against Psap, for which the z-score is inactive: -0.477.
Regarding GGGACCUAGGGAGAAAGAGTT against Smim10l2a, the z-score is inactive: -1.47.
Regarding GGUUGACGAAUAAAUCAACTT against Aknad1, the z-score was inactive: 1.21.
Turning to GCUAUUAAAAUAUGGGAAGTT against Olfr1314, the z-score was inactive: 1.28.
On to “GGUAAUGGGAGCUAGUUUATT against 6330549D23Rik”, for which the z-score was inactive: -0.259.
Next, GGGUUUGAUUCAUCAAAAATT against Peli1: inactive: 0.314; CCAAGAAUGUUUCCAUGUUTT against Slc12a5: inactive: -1.68.
Regarding GGAGCAAGUCUUGAAAAUUTT against Mtmr1, the z-score was inactive: 1.14.
GCUCAAACACUUACACACUTT against Alcam: the z-score is inactive: -0.616.
GGACUGAUAUCAUUUCUGATT against Flacc1: the z-score was inactive: -1.
For CCUUCCAUGACCUAGUUAGTT against Mras, the z-score is inactive: -1.84.
The same measure for CGGCUAUUCAGAGGACGAATT against Gnai3: inactive: -1.13; for GGGCAAAGGGAGUGACAAATT against Skp2: inactive: -1.95.
Regarding CCACUACUACUGGUAUGCUTT against Atp13a2, the z-score was inactive: -0.465.
Next, CGAAUGGAGCCUUAUUACUTT against Klhl23: inactive: 0.478; GCCACUCAAAGUUCGAAGGTT against Tmem51: inactive: -0.515; CCUUGCAGCAUCAGGACUUTT against Ascl2: active: 4.06.
Regarding GGUUUGGAUGUGAAACAAGTT against Myot, the z-score is inactive: -0.861.
The same measure for CCUGUGACUUUAAUUGCUUTT against Zfp275: inactive: 1.7; for GGUAGAAAUGGUGAGGUGATT against Pcdhgc5: inactive: -0.0853.
The same measure for CCAUGUUCCAGUUAAUGACTT against Ptch1: inactive: -0.419; for GGAAAAGCCUCAUUAGUUUTT against Txndc16: inactive: 0.0816.
Next, GGAUGAGAAUUUUGAGGCCTT against Tex22: inactive: -0.836; GGCUCAAGUAUGAGUCUCATT against Calhm2: inactive: 0.73.
Take GGCCUCUCAUUUCUAGUCATT against Kdelr2: the z-score was inactive: -1.36.
Turning to GCGUAUCGAAUGAAGAUUCTT against Gtf2a1l, the z-score is inactive: -0.748.
Take CCCACCAGAUUUCUACACCTT against Vsig2: the z-score is inactive: -2.
Turning to GGUGAUGCUUCUUGGAGACTT against Rab37, the z-score was inactive: -0.59.
As for GGACCUUAAACAAGUACUATT against Zfp750, the z-score was inactive: 0.206.
The same measure for CCCACUUCGAGAGAAAAACTT against Pafah1b3: inactive: -0.0954; for GGUAAGAAGACAAACACUCTT against Ly6g6d: inactive: 0.237; for GGUCUACGGCACCUUCUAUTT against Bsnd: inactive: -0.438.
On to “CCACCCAACAUCUAUGAGGTT against 1700037C18Rik”, for which the z-score is inactive: -0.978.
The same measure for GGCACAUGUCAGAAUAGGCTT against Pdlim5: inactive: -0.911; for GGACUUCACAAGACUUCAATT against Nfam1: active: 2.06.
With GGUUUUGAUAACAGAACAUTT against Capza2, the z-score is inactive: 0.227.
As for CGAUGGAUAAACCUACACCTT against Clmn, the z-score was inactive: 1.51.
For GGUUAUUAAGAGCACUUUCTT against Catsper3, the z-score is inactive: -0.0266.
